4 substances from patent US5948693 (dated 1999) can be followed below.

The nature of data set [1]: general procedure: peptide synthesis; PEG-PS with HMPB linker; MBHA polystyrene named as preferred polymer; DIPCDI/HOAt (solid phase); BOP-Cl, DCC/HOBt (solution); (PrPO2)3/DMAP or PyAOP f.
Data set [2] can be described thus: solution-phase peptide synthesis; PAC-MBHA polystyrene; DIPCDI/HOAt (solid phase); BOP-Cl, DCC/HOBt (solution); (PrPO2)3/DMAP or PyAOP f. To be noted: whole synthesis.

With “Fmoc-D-Ala-MeLeu-MeLeu-MeVal-Me(3-OH)Leu-Abu-Sar-MeAla-Val-MeAla-Ala-OBzl”, the step yield in data set [1] (coupling step) is 34%. Turning to “H-Me(3-OH)Leu-Abu-Sar-MeAla-Val-MeAla-Ala-OBzl”, the step yield in data set [1] (late stage modification step) was determined as 62%. As for “MeLeu^1 -Abu^2 -Sar^3 -MeLeu^4 -Val^5 -MeLeu^6 -Ala7-D-Ala^8 -Meleu^9 -MeLeu^10 -MeVal^11”, the isolated yield in data set [2] is reported as 10-15%. “N,O-Isopropylidene-Me(3-OH)Leu-Abu-Sar-MeAla-Val-MeAla-Ala-OBzl”: the step yield in data set [1] (coupling step) is 55%.
